{"source": "PubChem BioAssay AID504808 (Drosophila RNAi Screening Center, 2011)", "test": "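Chromatin factors that keep E2F targets switched off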 (primary screen)", "system": "Drosophila S2 cells", "reagent": "long dsRNA against Drosophila genes", "detection": "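Dual luciferase plate measurements; E2F-specific signal taken as firefly over Renilla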", "reading the numbers": "E2F firefly: higher = more E2F reporter activity; Renilla normaliser: higher = more normaliser reporter signal", "active means": "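Called active if the normalised E2F reporter went up by over 50%; the cutoff is arbitrary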", "note": "The screen tested about 21,000 reagents; this is an unselected part of those that have a named target and a result. Over the whole deposit, 18 (0.084%) got an active call. 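Raw counts without plate normalisation, one of two replicates; the ratio scores behind the calls were not deposited.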 A number with no mark means an inactive call. Reagent sequences are not shown. Not stated in the record: the amount of reagent, the time to read-out."}
{"Gene": "Ance-4", "amplicon": "DRSC07104", "E2F firefly, rep 1": 1.35e5, "Renilla normaliser, rep 1": 4515}
{"Gene": "CG2906", "amplicon": "DRSC06841", "E2F firefly, rep 1": 1.48e5, "Renilla normaliser, rep 1": 4538}
{"Gene": "fdl", "amplicon": "DRSC07279", "E2F firefly, rep 1": 93343, "Renilla normaliser, rep 1": 4175}
{"Gene": "CG12307", "amplicon": "DRSC02159", "E2F firefly, rep 1": 1.49e5, "Renilla normaliser, rep 1": 5593}
{"Gene": "Ada", "amplicon": "DRSC14463", "E2F firefly, rep 1": 1.25e5, "Renilla normaliser, rep 1": 4998}
{"Gene": "GstT3", "amplicon": "DRSC20541", "E2F firefly, rep 1": 1.43e5, "Renilla normaliser, rep 1": 6926}
{"Gene": "U2A", "amplicon": "DRSC06445", "E2F firefly, rep 1": 1.03e5, "Renilla normaliser, rep 1": 5035}
{"Gene": "CG7755", "amplicon": "DRSC07040", "E2F firefly, rep 1": 1.48e5, "Renilla normaliser, rep 1": 5249}
{"Gene": "BEAF-32", "amplicon": "DRSC05927", "E2F firefly, rep 1": 2616, "Renilla normaliser, rep 1": 166}
{"Gene": "Cadps", "amplicon": "DRSC21057", "E2F firefly, rep 1": 1.42e5, "Renilla normaliser, rep 1": 7171}
{"Gene": "CycE", "amplicon": "DRSC03295", "E2F firefly, rep 1": 51689, "Renilla normaliser, rep 1": 198}
{"Gene": "CycE", "amplicon": "DRSC03296", "E2F firefly, rep 1": 65193, "Renilla normaliser, rep 1": 118}
{"Gene": "CG31729", "amplicon": "DRSC02524", "E2F firefly, rep 1": 77940, "Renilla normaliser, rep 1": 3802}
{"Gene": "CG31729", "amplicon": "DRSC02946", "E2F firefly, rep 1": 82366, "Renilla normaliser, rep 1": 3950}

Entries listed so far whose gene name begins with A or a:
{"Gene": "Ance-4", "amplicon": "DRSC07104", "E2F firefly, rep 1": 1.35e5, "Renilla normaliser, rep 1": 4515}
{"Gene": "Ada", "amplicon": "DRSC14463", "E2F firefly, rep 1": 1.25e5, "Renilla normaliser, rep 1": 4998}

Next records follow:
{"Gene": "Mnr", "amplicon": "DRSC20549", "E2F firefly, rep 1": 1.36e5, "Renilla normaliser, rep 1": 5222}
{"Gene": "Mnr", "amplicon": "DRSC20550", "E2F firefly, rep 1": 1.38e5, "Renilla normaliser, rep 1": 5198}
{"Gene": "maca", "amplicon": "DRSC15738", "E2F firefly, rep 1": 88223, "Renilla normaliser, rep 1": 5520}
{"Gene": "tobi", "amplicon": "DRSC14435", "E2F firefly, rep 1": 1.01e5, "Renilla normaliser, rep 1": 5444}
{"Gene": "Mabi", "amplicon": "DRSC02489", "E2F firefly, rep 1": 1.10e5, "Renilla normaliser, rep 1": 4539}
{"Gene": "Helz", "amplicon": "DRSC11072", "E2F firefly, rep 1": 79354, "Renilla normaliser, rep 1": 3519}
{"Gene": "Cyt-b5-r", "amplicon": "DRSC03308", "E2F firefly, rep 1": 89184, "Renilla normaliser, rep 1": 3905}
{"Gene": "asrij", "amplicon": "DRSC04175", "E2F firefly, rep 1": 1.02e5, "Renilla normaliser, rep 1": 4929}
{"Gene": "CG17717", "amplicon": "DRSC18130", "E2F firefly, rep 1": 1.18e5, "Renilla normaliser, rep 1": 5755}
{"Gene": "Dna2", "amplicon": "DRSC18254", "E2F firefly, rep 1": 8100, "Renilla normaliser, rep 1": 692}
{"Gene": "woc", "amplicon": "DRSC15928", "E2F firefly, rep 1": 1540, "Renilla normaliser, rep 1": 992}
{"Gene": "Sans", "amplicon": "DRSC06357", "E2F firefly, rep 1": 117, "Renilla normaliser, rep 1": 31}
{"Gene": "CG10164", "amplicon": "DRSC14197", "E2F firefly, rep 1": 55271, "Renilla normaliser, rep 1": 3208}
{"Gene": "Sf3b3", "amplicon": "DRSC08370", "E2F firefly, rep 1": 63304, "Renilla normaliser, rep 1": 3594}
